According to PubChem BioAssay AID540276 (National Center for Advancing Translational Sciences (NCATS), 2011):
Out of some 300,000 compounds screened, about 5,400 (1.8%) were called active. This list was built around the results that the source calls inconclusive (neither active nor inactive); the mix of calls is not that of the screen. The call rests on the fitted dose curve; tested in HEK293 cells. Where the call is inconclusive, the potency comes from a doubtful curve fit.

Experiment: qHTS for inhibitors of binding or entry into cells for Marburg Virus
Conditions: Marburg virus pseudotyped entry inhibition, cell reporter; series mostly up to 37.8 µM
Potency means the concentration at half of the fitted maximal effect.

Q: Which Potency does the source give for `Cc1ccccc1-c1nc2cc(N)ccc2o1` here?
A: inconclusive: 2.51 µM [activator, single point]

Q: For `CCOc1ccc(-c2cc(C(=O)Oc3ccc(C#N)cc3)no2)cc1`, which Potency is on record?
A: inactive

Q: For `Cc1cccc(NC(=O)c2ccccc2NC(=O)CCC(=O)O)c1`, which Potency is on record?
A: inconclusive: 1.41 µM [activator, single point]

Q: Which Potency does the source give for `CSc1cccc(NC(=O)CCCNC(=O)c2ccc(Cl)cc2)c1` here?
A: inconclusive: 12.6 µM [inhibitor, partial curve, poor fit]

Q: Which Potency does the source give for `CC1=NN(CCc2ccccn2)C(=O)CC1` here?
A: inconclusive: 3.55 µM [inhibitor, partial curve]

Q: Which Potency does the source give for `COc1ccc(C(=O)N(CCc2ccccc2)Cc2ccccc2)cc1S(=O)(=O)N1CCOCC1` here?
A: inconclusive: 10 µM [inhibitor, partial curve, poor fit]

Q: With `CC(=O)n1nc(-c2ccc(Cl)cc2)nc1NCc1ccco1` as the compound, how does the Potency read?
A: inconclusive: 29.1 µM [inhibitor, single point]

Q: Which Potency does the source give for `N#Cc1c(/N=C/c2ccc(-c3ccccc3C(=O)O)o2)sc2c1CCCC2` here?
A: inconclusive: 1.41 µM [activator, partial curve, poor fit]

Q: With `CCN(CC)C(=S)SC1CCCCN(C(=O)c2ccc(F)cc2)C1=O` (stereo not drawn) as the compound, how does the Potency read?
A: inconclusive: 5.62 µM [inhibitor, single point]

Q: With `CCN(CC)S(=O)(=O)c1ccc(C(=O)NNc2nc(-c3ccccc3)c3cc(Br)ccc3n2)cc1` as the compound, how does the Potency read?
A: inconclusive: 6.51 µM [inhibitor, partial curve]

Q: Which Potency does the source give for `CCOC(=O)CCc1c(C)n[nH]c1C` here?
A: inactive

Q: Which Potency does the source give for `O=C(CSc1ncnc2c1cnn2-c1cccc(Cl)c1)NCC1CCCO1` (stereo not drawn) here?
A: inactive

Q: For `CCOC(=O)C(NC(=O)C(Cc1ccc(N(CCCl)CCCl)cc1)NC(C)=O)C(C)C` (stereo not drawn), which Potency is on record?
A: inactive

Q: With `N/C(=N\OC(=O)Cc1ccc([N+](=O)[O-])cc1)c1cccc(Br)c1` as the compound, how does the Potency read?
A: inconclusive: 0.316 µM [activator, full curve, poor fit]

Q: For `Cc1ccccc1Nc1c(-c2cc(Br)ccc2F)nc2ccccn12`, which Potency is on record?
A: inactive

Q: Which Potency does the source give for `O=C(O)CCCCCNC(=O)c1cccc(Br)c1` here?
A: inactive

Q: With `COc1ccc(N(CC(=O)NCc2ccccc2)C(=O)Cn2nnc(-c3ccccc3F)n2)cc1OC` as the compound, how does the Potency read?
A: inactive

Q: Which Potency does the source give for `O=c1[nH]c2cc3c(cc2cc1CN(Cc1nnnn1C1CCCC1)C1CCCC1)OCCO3` here?
A: inconclusive: 10.3 µM [inhibitor, partial curve, poor fit]

Q: For `CC(C)(C)n1ncc2c(=O)n(CC(=O)NCc3ccc(F)cc3)cnc21`, which Potency is on record?
A: inconclusive: 10 µM [inhibitor, partial curve, poor fit]

Q: For `CC(C)CC(=O)Nc1c2c(nn1-c1ccc(F)cc1)CSC2`, which Potency is on record?
A: inconclusive: 6.51 µM [activator, single point]

Q: Which Potency does the source give for `Cc1noc(C)c1C(=O)Nc1nc2ccc(S(C)(=O)=O)cc2s1` here?
A: inconclusive: 7.08 µM [inhibitor, partial curve, poor fit]

Q: Which Potency does the source give for `Cc1ccc(C(OCC(O)CNC(C)c2ccccc2)c2ccccc2)cc1` (stereo not drawn) here?
A: inconclusive: 14.1 µM [inhibitor, partial curve, poor fit]

Q: For `N=c1oc2cc(O)ccc2cc1C(=O)Nc1ccc(F)cc1`, which Potency is on record?
A: inactive

Q: With `CCOC(=O)Cc1csc(NC(=O)CC(C)(C)C)n1` as the compound, how does the Potency read?
A: inconclusive: 11.2 µM [inhibitor, partial curve, poor fit]

Q: With `N#CCCn1cc(C=C2C(=O)NC(=O)NC2=O)c(-c2ccccc2)n1` as the compound, how does the Potency read?
A: inactive

Q: For `CCN(CC)c1cc(CS(=O)c2ccccc2)nc(-c2ccccc2)n1` (stereo not drawn), which Potency is on record?
A: inconclusive: 17.8 µM [inhibitor, single point]

Q: With `Nc1nc(Nc2ccc(Cl)cc2)nc(NCCO)c1[N+](=O)[O-]` as the compound, how does the Potency read?
A: inconclusive: 5.62 µM [inhibitor, single point]

Q: With `Cc1ccc(NCC(=O)Nc2cccc(S(=O)(=O)N(C)C)c2)cc1S(=O)(=O)N1CCCCCC1` as the compound, how does the Potency read?
A: inconclusive: 3.55 µM [inhibitor, partial curve, poor fit]

Q: Which Potency does the source give for `CCCC(=O)NC(C)c1nc2ccccc2n1Cc1ccccc1` (stereo not drawn) here?
A: inconclusive: 35.5 µM [inhibitor, single point]

Q: With `CCOC(=O)c1ccc(N2C(=O)C3CC=CCC3C2=O)cc1` (stereo not drawn) as the compound, how does the Potency read?
A: inactive

Q: Which Potency does the source give for `CCCCNC(=S)N1CCn2cccc2C1c1ccccc1` (stereo not drawn) here?
A: inconclusive: 14.1 µM [inhibitor, partial curve, poor fit]

Q: For `CC(C)c1nnc(NC(=O)CCS(=O)(=O)Cc2ccccc2)s1`, which Potency is on record?
A: inactive

Q: For `COc1ccc(C(NC(=O)c2cc(OC)ccc2OC)c2ccccc2)cc1` (stereo not drawn), which Potency is on record?
A: inconclusive: 11.2 µM [inhibitor, partial curve, poor fit]

Q: Which Potency does the source give for `CCCCN(CC(O)COc1cccc(C)c1)CC(O)COc1cccc(C)c1` (stereo not drawn) here?
A: inconclusive: 17.8 µM [inhibitor, single point]

Q: For `Cc1ccc(Nc2nnc(-c3ccccc3N)o2)cc1C`, which Potency is on record?
A: inconclusive: 0.562 µM [activator, full curve, poor fit]

Q: With `Cc1cc(C)cc(OCc2ccc(C(=O)N3N=C(C(F)F)CC3(O)C(F)F)o2)c1` (stereo not drawn) as the compound, how does the Potency read?
A: inconclusive: 0.199 µM [inhibitor, full curve, poor fit]

Q: For `COc1ccc2c(c1)[nH]c(=O)c1sc3ccccc3c12`, which Potency is on record?
A: inactive

Q: For `CC(C)OP(=O)(c1ccc(N(C)C)cc1)C(Nc1ccccc1)c1ccccc1` (stereo not drawn), which Potency is on record?
A: inconclusive: 8.91 µM [inhibitor, partial curve, poor fit]

Q: Which Potency does the source give for `CCCS(=O)(=O)c1nc(S(=O)(=O)c2ccc(C)cc2)c(N(C)Cc2ccccc2)s1` here?
A: inconclusive: 11.2 µM [inhibitor, single point]

Q: Which Potency does the source give for `CCC(C)NC(=O)c1n[nH]c(=O)c2ccccc12` (stereo not drawn) here?
A: inconclusive: 0.447 µM [activator, single point]

Q: For `C=CCn1c(C)cc(-c2csc(NC)n2)c1C`, which Potency is on record?
A: inconclusive: 35.5 µM [inhibitor, single point]

Q: Which Potency does the source give for `CCN(CC)C(=O)N1CCC(NC(=O)c2ccccc2)CC1` here?
A: inconclusive: 7.3 µM [inhibitor, single point]

Q: For `c1ccc(Nc2ccnc(Nc3ccccc3)n2)cc1`, which Potency is on record?
A: inconclusive: 11.2 µM [inhibitor, single point]
